According to paper doi:10.1101/842682:

T1: GFP-Cep57l1 (mouse) (UniProt Q8VDS7)
T1 sequence: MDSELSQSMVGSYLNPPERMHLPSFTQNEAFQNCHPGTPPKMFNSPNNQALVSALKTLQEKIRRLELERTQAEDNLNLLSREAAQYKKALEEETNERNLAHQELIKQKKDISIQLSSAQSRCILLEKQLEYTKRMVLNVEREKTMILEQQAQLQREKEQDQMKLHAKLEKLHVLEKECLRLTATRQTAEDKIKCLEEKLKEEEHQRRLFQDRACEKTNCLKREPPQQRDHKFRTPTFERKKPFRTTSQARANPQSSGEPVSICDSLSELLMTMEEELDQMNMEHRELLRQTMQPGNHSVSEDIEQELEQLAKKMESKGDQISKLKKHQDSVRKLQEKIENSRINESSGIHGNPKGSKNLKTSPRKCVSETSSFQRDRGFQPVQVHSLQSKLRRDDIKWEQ


Columns and labels:
GFP-Cep57l1 (mouse) = target: T1, GFP-Cep57l1 (mouse); experiment: co-IP
[1] = target: GFP-Cep57l1 N-terminus (mouse); experiment: co-IP

| binding (GFP-Cep57l1 (mouse)) | binding [1] | Molecule |
| --- | --- | --- |
| binds |  | Flag-Cep63 N-terminal centriole-binding region (domain or fragment) |
|  | binds | Flag-Cep63 (protein, UniProt Q3UPP8 1-700) MEALLEGIQNRGHSGGFLTSCEAELQELMKQIDIMVAHKKSEWEGQTHALETCLDIRDRELKALRSQLDMKHKEVGILHQQIEEHEKTKQEMAMEYKEELLKLQEELSRLKRSYEKLQKKQLREFRGNTKSFREDRSEIERLTGKIEEFRQKSLDWEKQRLIYQQQVSSLEAQRKALAEQSEIIQAQLANRKQKLESVELSSQSEIQHLNSKLERAKDTICANELEIERLNIRVNDLMGTNMTILQDHRQKEEKLRESEKLLEALQEEQKELKASLQSQETFILEAKMQEKLQTTLKAVGTQQSVERPLEDCQKERKYSSPGQGVLDNVLSQLDFSHSSEELLQAEVTRLEGSLESVSATCKQLSQELMEKYEELKRMEGHNNEYRTEIKKLKEQILQADQTYSSALEGMKMEISQLTRELHQRDITIASAKCSSSDMEKQLKAEMQKAEEKAVEHKEILSQLESLKLENHRLSETVMKLELGLHEAKEISLADLQENYIEALNKLVSENQQLQKDLMSTKSELEHATNMCKKKDGEIFNPAHSRAAGFKNAELKPIHGQHRHDGIKTEQYKTGHHSPRGQTLDSIDPVARGPSPLSSHISPGSSTVSLPSNFLFEAHSLPSVLDINDVNFSDSLSDCMNDQEEFVSSGSLPTSPLGSIATRFLEEEELRSHHILERLDAHIEELKRESEKTVRQFTALV |

No constants are given. Whether binding was seen depends on the method and setting. Binding seen in cells or lysates may run through a third protein. Binding can be weak; no strength is given. Sequences can lack the tags named with a protein.
